Results as given in article PMC7819943, “Rice protein-binding microarrays: a tool to detect cis-acting elements near promoter regions in rice”.
This is one part of the list.

The chains behind the UniProt entries cited, without tags or fusion partners.
UniProt Q0JBA9, entry or part of it: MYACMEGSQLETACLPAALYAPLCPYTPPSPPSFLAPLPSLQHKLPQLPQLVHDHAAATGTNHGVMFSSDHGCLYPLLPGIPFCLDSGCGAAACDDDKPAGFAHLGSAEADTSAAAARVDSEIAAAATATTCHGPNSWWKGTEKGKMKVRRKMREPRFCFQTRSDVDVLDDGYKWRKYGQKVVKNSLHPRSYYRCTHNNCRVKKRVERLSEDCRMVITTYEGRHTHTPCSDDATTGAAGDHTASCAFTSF

target: OsWRKY34 (Oryza sativa, UniProt Q0JBA9 1-250); test: protein-binding microarray (RPBM); PBS, 2% BSA, 51.3 ng/ul salmon testes DNA, 50 uM zinc acetate, 200 nM TF, 25 C, 1 h; high values mean tight binding; details: protein: recombinant; tags: N-terminal polyhistidine and DsRed monomer fusion (pET32a); label: CyDye5-dUTP incorporated in the synthesized complementary strand; 3' TTTTT single-stranded linker to array surface; dsDNA, one strand shown
Outline: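 Binding signal is reported as fluorescence intensity per feature (arbitrary units) from an Axon 4000B scanner. Incubation used 200 nM of each Ni–NTA-purified, N-terminally polyhistidine- and DsRed-fused transcription factor from E. coli BL21-CodonPlus on a double-stranded custom Agilent array for 1 h at 25 °C, with 50 µM zinc acetate in the buffer, followed by washing.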

Sequence | binding signal
CTTGTCCGTATACATTGTTACACACACCCGTTTTGTTCTTCGGAGTCACCTAGTGCAG | 11900 fluorescence intensity (a.u.)
ATCGCTAACCTTTATGTCATGTCTAGCTAGTGCAATTAGACGGAGTCACCTAGTGCAG | 10300 fluorescence intensity (a.u.)
ATCATCACGACATCTCACTCAATTTCTAGTGATATTTTTTCGGAGTCACCTAGTGCAG | 8340 fluorescence intensity (a.u.)
CCTTGTGTGCACTTCCCCGCGTAACCGCAGCCACCGTCACCGGAGTCACCTAGTGCAG | 8680 fluorescence intensity (a.u.)
CCGCATGCTCTGCTCTCTCGCTCGCTCGCCGCCGCCTCCTCGGAGTCACCTAGTGCAG | 8880 fluorescence intensity (a.u.)
ATGACCGGCCACCACCATTGCCACCGGCCGATCTCCTCTTCGGAGTCACCTAGTGCAG | 9360 fluorescence intensity (a.u.)
GGTCTTTGTTTGGGCAGAACGGTTGTATGTGGGCCGGGCCCGGAGTCACCTAGTGCAG | 8270 fluorescence intensity (a.u.)
GTCAGTGGTTCATCTGGACCAAAACCCAACGAGCTAGTCTCGGAGTCACCTAGTGCAG | 8520 fluorescence intensity (a.u.)
CTCCTCTTGCTCTATCGATCACACATTCTCTCTCTCACTCCGGAGTCACCTAGTGCAG | 14100 fluorescence intensity (a.u.)
CATTACTTTTTTTTAAACATTTTATTTCCATTTTTAATTTCGGAGTCACCTAGTGCAG | 8840 fluorescence intensity (a.u.)
TCTCGGCGCGGTAACCCTCGCGCCCCACCACATATTTTCACGGAGTCACCTAGTGCAG | 8060 fluorescence intensity (a.u.)
TGTCTGGTCAACGCACAATTTCGGTCAGTAACTCCCTGGCCGGAGTCACCTAGTGCAG | 9770 fluorescence intensity (a.u.)
CTCTCTACACTGTCACTCTCACTGCACTTCCTAGCTTAGCCGGAGTCACCTAGTGCAG | 10400 fluorescence intensity (a.u.)
CACACCAGCTTTATCTTCCACTTCTACAGCACTGCATCAACGGAGTCACCTAGTGCAG | 8910 fluorescence intensity (a.u.)
CATACGTTGAAACAACCACTACTACTACCACTACGCCTAACGGAGTCACCTAGTGCAG | 8600 fluorescence intensity (a.u.)
GCAGCCATTTCCAGAGCCGGACACTCCTGTGCCGCGTTTTCGGAGTCACCTAGTGCAG | 8770 fluorescence intensity (a.u.)
TATACTTCGTACTGACCACCAGCTTCGTGCGCATGCATGACGGAGTCACCTAGTGCAG | 8840 fluorescence intensity (a.u.)
TATTTGACATTTAATTGTTGACATTATATGAACTGATTGTCGGAGTCACCTAGTGCAG | 8120 fluorescence intensity (a.u.)
TTGGGCAGATCCTTCGTCTGTATCGTATTGTGCTTTTGATCGGAGTCACCTAGTGCAG | 8470 fluorescence intensity (a.u.)
GTGCGATTTCTCCCCGTTTCTTGGCCTCGCCACTCCGCCACGGAGTCACCTAGTGCAG | 8070 fluorescence intensity (a.u.)
AAGGTGGTACTGTACGCTCCATAGCTTTTCCTTCCGGTTTCGGAGTCACCTAGTGCAG | 9220 fluorescence intensity (a.u.)

Sequence | binding signal
ACTACCTCTGTTTCTTATTATAAGTCGTTTTGACCTATTTCGGAGTCACCTAGTGCAG | 8600 fluorescence intensity (a.u.)
GGGGTCACAGCCAAAAGCCCAAAACTCTCATGCCCGCGCCCGGAGTCACCTAGTGCAG | 8070 fluorescence intensity (a.u.)
GGCAGAGTAATTTTCACACACATTCCTCCACCGCGCCGTCCGGAGTCACCTAGTGCAG | 8790 fluorescence intensity (a.u.)
TGATCGGTATCATGTGTCAGGTATGTGCTTTGATGATTCACGGAGTCACCTAGTGCAG | 8840 fluorescence intensity (a.u.)
ATTTGGAGAACTTGCTGGGAGATGATTGGTTTTATTTGGACGGAGTCACCTAGTGCAG | 8780 fluorescence intensity (a.u.)
ACCTTACACAAGCATTTGGTCTGCTTTACGGCGGATTGCACGGAGTCACCTAGTGCAG | 9530 fluorescence intensity (a.u.)
CACGGCCGTTTCCGTACGCCTCTGCCTCTCACCGCGCCCGCGGAGTCACCTAGTGCAG | 10400 fluorescence intensity (a.u.)
GCAGTCAACAGCTAACACTCTACCCGCCACGGTCGCCAGCCGGAGTCACCTAGTGCAG | 8910 fluorescence intensity (a.u.)
CCTACCTCCTACTCCTTATCCTCCACTTCGTCGCATTACACGGAGTCACCTAGTGCAG | 8750 fluorescence intensity (a.u.)
GGATAAAAGTTTTCACTACATTTGCTTTGTTACACTTGTGCGGAGTCACCTAGTGCAG | 9060 fluorescence intensity (a.u.)
TTCTCTAGGGGAATCGGACTCTTTTTTTTTTGTCTTTTTTCGGAGTCACCTAGTGCAG | 12800 fluorescence intensity (a.u.)
TAGTTGTAAATGTTGTAGCCGTTTGTTGTTGTGTGTAATGCGGAGTCACCTAGTGCAG | 8540 fluorescence intensity (a.u.)
GCGTGTGTGGTTTAAATATAAACTTGTTTGCAATTTTTTTCGGAGTCACCTAGTGCAG | 9150 fluorescence intensity (a.u.)
TATTTTCTTCCCGATTTACTCTGTTTCGAGCGAACAAAGGCGGAGTCACCTAGTGCAG | 8490 fluorescence intensity (a.u.)
GTGAGTGTTTGGGCTAACACTGTATTCTTATTTCTTAATACGGAGTCACCTAGTGCAG | 9490 fluorescence intensity (a.u.)
CATCACCCGACCAGTCAAATCAGGGCGTTATTTTCATGATCGGAGTCACCTAGTGCAG | 8820 fluorescence intensity (a.u.)
ACGAGAAGACCATGTATATTCATTTTCCTTGGCCTATCAACGGAGTCACCTAGTGCAG | 9670 fluorescence intensity (a.u.)
TTGTTGCCATTCTCTTCGTGCATTTGTTTAGTAAAATTATCGGAGTCACCTAGTGCAG | 11800 fluorescence intensity (a.u.)
AATCTACTACCTCTATTTTATATTATAACTTGTTTTGGGTCGGAGTCACCTAGTGCAG | 10700 fluorescence intensity (a.u.)
TCCTATAAAAAAAAAAATCTCCGCAGCCGACTTTCCATTCCGGAGTCACCTAGTGCAG | 8320 fluorescence intensity (a.u.)
TCTATTTTATAATCGGTGTGTTTGACTGGTATTTTTTAGCCGGAGTCACCTAGTGCAG | 8930 fluorescence intensity (a.u.)

5 entries from above, as a markdown table.

| Sequence | binding signal |
| --- | --- |
| CCTTGTGTGCACTTCCCCGCGTAACCGCAGCCACCGTCACCGGAGTCACCTAGTGCAG | 8680 fluorescence intensity (a.u.) |
| CTCCTCTTGCTCTATCGATCACACATTCTCTCTCTCACTCCGGAGTCACCTAGTGCAG | 14100 fluorescence intensity (a.u.) |
| GCAGCCATTTCCAGAGCCGGACACTCCTGTGCCGCGTTTTCGGAGTCACCTAGTGCAG | 8770 fluorescence intensity (a.u.) |
| GCAGTCAACAGCTAACACTCTACCCGCCACGGTCGCCAGCCGGAGTCACCTAGTGCAG | 8910 fluorescence intensity (a.u.) |
| AATCTACTACCTCTATTTTATATTATAACTTGTTTTGGGTCGGAGTCACCTAGTGCAG | 10700 fluorescence intensity (a.u.) |

(listing goes on)

Sequence | binding signal
CCCACGCACACCCCGCTGCTTCCGATCAAATCGATCCCCACGGAGTCACCTAGTGCAG | 10400 fluorescence intensity (a.u.)
TTTGTGTACTAAATCTCCTTATGGGAGGGGATCGTTTTAACGGAGTCACCTAGTGCAG | 12500 fluorescence intensity (a.u.)
GTTTTTTCGCCCGGTTTTTTCTCGCCGGTTTTTTCGCACGCGGAGTCACCTAGTGCAG | 8290 fluorescence intensity (a.u.)
ATCCTAAAATGTTTGACACCATTGACTTTTTTAAAAATGTCGGAGTCACCTAGTGCAG | 8790 fluorescence intensity (a.u.)
GGCGAACCCCAGCCGCCGTCCCTTGGTCCAGTCCATCTTCCGGAGTCACCTAGTGCAG | 11200 fluorescence intensity (a.u.)
AACACCACGAAACTTTACACCCTATTTGACGTCAAGAACTCGGAGTCACCTAGTGCAG | 8770 fluorescence intensity (a.u.)
TGCTGCCACTAAGTGTTACTATACAACATTCTCCTCTAAACGGAGTCACCTAGTGCAG | 8710 fluorescence intensity (a.u.)
TTTCGTACACTGGTTTGGTTTTCAGAAATGTTTTTCTTTACGGAGTCACCTAGTGCAG | 8320 fluorescence intensity (a.u.)
ATAGTGTTTATTCTAATATTCTTTATATATTGCTTCTTATCGGAGTCACCTAGTGCAG | 8530 fluorescence intensity (a.u.)
ATGACACTGTTTCGTTTCACCTTTAATTAAAGATTCCTATCGGAGTCACCTAGTGCAG | 9330 fluorescence intensity (a.u.)
TCACGAGTAGATGCCGTTTCAGTTTCACCATGCCTATTTACGGAGTCACCTAGTGCAG | 11900 fluorescence intensity (a.u.)
CAATAGGGTTTGCTCTTAATAACGTTCTTTTATCACTTTGCGGAGTCACCTAGTGCAG | 8320 fluorescence intensity (a.u.)
GCCAATCCTTATCCTTAAACCCACCCATATAACCGCCTCTCGGAGTCACCTAGTGCAG | 9780 fluorescence intensity (a.u.)
GAGGGGTGGATGGAAAGCGGGTGTGAGTGAGGAAGATCCCCGGAGTCACCTAGTGCAG | 9820 fluorescence intensity (a.u.)
CGCTATGTTAGTTTTGTTTCACGCTAGTGGCGAGACCAGACGGAGTCACCTAGTGCAG | 8940 fluorescence intensity (a.u.)
AACCCGCGGATGTCAGCATCCACCGTTTCGCATCGCGGATCGGAGTCACCTAGTGCAG | 9520 fluorescence intensity (a.u.)
CCATCATATTTGACTATTTTCAGGTGTTAGTTTGGACGATCGGAGTCACCTAGTGCAG | 9210 fluorescence intensity (a.u.)
CGAAAATCAGGGTTTGTTTGTCTTTTTTTTTCTGGAGGGACGGAGTCACCTAGTGCAG | 8300 fluorescence intensity (a.u.)
TCCTCCATCGCCGAGAAGTCTATTTGCTTTCCTCCTTTTACGGAGTCACCTAGTGCAG | 9230 fluorescence intensity (a.u.)
GCACCCAACCCGTCCATTCCATATGCACGTATCGTATCATCGGAGTCACCTAGTGCAG | 8630 fluorescence intensity (a.u.)
TCGTATCACTATTGGCATAATTTTGGGGTTTTTTTAATATCGGAGTCACCTAGTGCAG | 13200 fluorescence intensity (a.u.)

Retrieved one by one from above:
Sequence | binding signal
TTTGTGTACTAAATCTCCTTATGGGAGGGGATCGTTTTAACGGAGTCACCTAGTGCAG | 12500 fluorescence intensity (a.u.)
GAGGGGTGGATGGAAAGCGGGTGTGAGTGAGGAAGATCCCCGGAGTCACCTAGTGCAG | 9820 fluorescence intensity (a.u.)

Remaining list, next part:

Sequence | binding signal
AACAAATGTACTTTCTCTGTTTCACAATGTAAGCCATTCTCGGAGTCACCTAGTGCAG | 8340 fluorescence intensity (a.u.)
CCTTCCAGTTCACTCCACTCCGCTACTTTTTCCAACCGTCCGGAGTCACCTAGTGCAG | 12000 fluorescence intensity (a.u.)
TGGCCTTTTTTTGACGGTCATAATTTTTGTTTTCTAAACCCGGAGTCACCTAGTGCAG | 13900 fluorescence intensity (a.u.)
CAAACAATGGTCACGGCCTCATCTACATTTTCGTCCACCGCGGAGTCACCTAGTGCAG | 10200 fluorescence intensity (a.u.)
TAATTTTACTCGATACTCTATGTACCCCTGAAATTTCGCTCGGAGTCACCTAGTGCAG | 9560 fluorescence intensity (a.u.)
ATCTCGTTGACCGTGTCAAAGTCTAAAAATACCTATATTTCGGAGTCACCTAGTGCAG | 9390 fluorescence intensity (a.u.)
GCTTCTATACATCTACAGGTTTCTGTAATTGATAGGTTAACGGAGTCACCTAGTGCAG | 9030 fluorescence intensity (a.u.)
AGAACTGTTGGTTTTTATCGTGAGTCAAGTCTCACACTACCGGAGTCACCTAGTGCAG | 8400 fluorescence intensity (a.u.)
TCGGAGGGCGAGGGGAGTATGCGGCGGAGGGAGGGAGGCACGGAGTCACCTAGTGCAG | 9640 fluorescence intensity (a.u.)
CTCCTGGTAACAACGTAGCCTTAGTTCACATTTTTATAATCGGAGTCACCTAGTGCAG | 8720 fluorescence intensity (a.u.)
CCATTGATCAATGTATACGTTTCCTATATGTGTTTATATTCGGAGTCACCTAGTGCAG | 8550 fluorescence intensity (a.u.)
CTCACTACTCGTCGGTCGGCGCTACCCCGTGGCCACGCTTCGGAGTCACCTAGTGCAG | 8210 fluorescence intensity (a.u.)
GCGTCCCCGTGCATCCATCTACTCGGCCGGCGACCGCGCGCGGAGTCACCTAGTGCAG | 10100 fluorescence intensity (a.u.)
TATGTCACCTCGCCTTCGACTACGTACATACCACCCTGCGCGGAGTCACCTAGTGCAG | 8300 fluorescence intensity (a.u.)
ATCCGTGTTTGAGTTGGTTTTTAAGTTTGTTTGCTTTTGGCGGAGTCACCTAGTGCAG | 10400 fluorescence intensity (a.u.)
ATAAACGTAAACCCGCGATATTTTCGCCACAAATATTTGTCGGAGTCACCTAGTGCAG | 8890 fluorescence intensity (a.u.)
TGCGGGATGGCTGGTTGGTGTGCGTGTGCTTCGGTGCGTTCGGAGTCACCTAGTGCAG | 10400 fluorescence intensity (a.u.)
ACACAAGTTATGTTTTTTTTTTGCAATCTCCATGTAATTTCGGAGTCACCTAGTGCAG | 9470 fluorescence intensity (a.u.)
TTTGTTCATCTTTTTCGTTTAACTAATTTCTTCTCTTTTTCGGAGTCACCTAGTGCAG | 10100 fluorescence intensity (a.u.)
ATTCTCTTTGTAACCATCATATATTTTCCTCCAGAACTTTCGGAGTCACCTAGTGCAG | 10500 fluorescence intensity (a.u.)
CCCGGTTCTGTTCTTGGTTCTTGGAAAGCCGGTGGGGTGCCGGAGTCACCTAGTGCAG | 8740 fluorescence intensity (a.u.)
